Values from PubChem BioAssay AID1224827 (NIAID, 2016).
Here is an unselected part of about 3,800 reagents. Over the whole deposit, about 2,200 (57%) were called active. 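Active means a strong reporter change in either direction; calls are per siRNA, not per gene; qiagen siRNAs gave weaker effects.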 Reagents against one gene are numbered here. Further read-outs or replicates are left out here.

- Assay: 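Retest primary hits on a TNF reporter with six siRNAs per gene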 (follow-up of hits)
- System: RAW264.7 G9 mouse macrophage reporter clone
- Reagent: single siRNA against mouse genes, 100 nM siRNA
- Duration: siRNA for 2 days, then LPS about 16 h
- Conditions: bacterial lipopolysaccharide (LPS), 10 ng/ml, cells fixed after overnight (about 16 h) stimulation
- Detection: 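TNF promoter reporter red fluorescence in nuclei, background subtracted, normalised per plate and to non-targeting control siRNA, as z-scores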
- Direction: TNF reporter z-score, mean: higher = stronger Tnf promoter reporter signal; gene median z, three same-vendor siRNAs: higher = stronger Tnf reporter signal for the gene
- Active means: 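An siRNA is called active when its mean z-score over replicates is at least +2 or at most -2; control wells get no call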

TNF reporter z-score, mean | gene median z, three same-vendor siRNAs | call | gene knocked down | siRNA no.
3.36 | -0.0597 | active | Pmaip1 | 1
-0.0597 | -0.0597 | inactive | Pmaip1 | 2
-2.84 | -0.0597 | active | Pmaip1 | 3
3.13 | 1.91 | active | Pmaip1 | 4
2.62 | 1.91 | active | Pmaip1 | 5
1.5 | 1.91 | inactive | Pmaip1 | 6
-1.82 | -3.51 | inactive | Eloc | 1
-3.51 | -3.51 | active | Eloc | 2
-4.07 | -3.51 | active | Eloc | 3
-0.0878 | -0.999 | inactive | Eloc | 4
-0.521 | -0.999 | inactive | Eloc | 5
-1.1 | -0.999 | inactive | Eloc | 6
5.65 | -4.12 | active | Gzmf | 1
-4.12 | -4.12 | active | Gzmf | 2
-5.46 | -4.12 | active | Gzmf | 3
-0.536 | -2.2 | inactive | Gzmf | 4
-2.48 | -2.2 | active | Gzmf | 5
-2.88 | -2.2 | active | Gzmf | 6
-0.95 | -1.65 | inactive | Grk5 | 1
-1.52 | -1.65 | inactive | Grk5 | 2
-3.83 | -1.65 | active | Grk5 | 3
3.79 | 0.242 | active | Grk5 | 4
0.242 | 0.242 | inactive | Grk5 | 5
-2.61 | 0.242 | active | Grk5 | 6
-1.64 | -2.97 | inactive | Or5w15 | 1
-2.84 | -2.97 | active | Or5w15 | 2
-5.46 | -2.97 | active | Or5w15 | 3
2.3 | 0.688 | active | Or5w15 | 4
1.33 | 0.688 | inactive | Or5w15 | 5
-0.808 | 0.688 | inactive | Or5w15 | 6
-3.65 | -4.19 | active | Ube2d3 | 1
-4.03 | -4.19 | active | Ube2d3 | 2
-5.94 | -4.19 | active | Ube2d3 | 3
3.84 | 2.59 | active | Ube2d3 | 4
3.16 | 2.59 | active | Ube2d3 | 5
2.14 | 2.59 | active | Ube2d3 | 6
-1.07 | -3.36 | inactive | Atp1b3 | 1
-3.36 | -3.36 | active | Atp1b3 | 2
-5.14 | -3.36 | active | Atp1b3 | 3
2.67 | 1.45 | active | Atp1b3 | 4
1.42 | 1.45 | inactive | Atp1b3 | 5
0.896 | 1.45 | inactive | Atp1b3 | 6
-0.396 | -1.45 | inactive | Kmt2a | 1
-1.69 | -1.45 | inactive | Kmt2a | 2
-2.6 | -1.45 | active | Kmt2a | 3
0.97 | -2.96 | inactive | Dclre1b | 1
-2.96 | -2.96 | active | Dclre1b | 2
-3.98 | -2.96 | active | Dclre1b | 3
0.958 | -0.765 | inactive | Dclre1b | 4
0.8 | -0.765 | inactive | Dclre1b | 5
-1.25 | -0.765 | inactive | Dclre1b | 6
-2.52 | -4.04 | active | Magi1 | 1
-4.04 | -4.04 | active | Magi1 | 2
-4.68 | -4.04 | active | Magi1 | 3
1.81 | 0.23 | inactive | Magi1 | 4
0.375 | 0.23 | inactive | Magi1 | 5
-0.879 | 0.23 | inactive | Magi1 | 6
